Percent effect of library compounds

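Cell assay of Leishmania donovani living inside macrophages; the read-out is not stated. Concentration: 30 µM. Direction is inferred from retests: higher values go with stronger inhibition. Of about 69,000 compounds tested this way, about 1,000 (1.5%) reached 50% or more in at least one test.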

The filed quantity is “Percent Effect” (%).
How 0% and 100% were set is not recorded. Most values in the screen are low, and negative values occur.
Compounds were drawn at random from those tested, without regard to their results.
Two or more numbers in one place are separate tests of the same structure; such repeats can differ widely.

| compound | effect |
|---|---|
| `Cc1cc2nc(SCC(=O)N3CCOCC3)n(CC(C)C)c(=O)c2[nH]1` | 15.75 |
| `O=c1cc(-c2ccc(F)cc2)nc2n1CCCCC2` | -20.7 |
| `Cc1n[nH]c(C)c1C1COCCN1C(=O)Cc1ccccc1F` (centres undefined) | 6.643 |
| `CSCC(CCO)NC(=O)c1cccc(F)c1Cl` (centres undefined) | -20.71 |
| `NS(=O)(=O)c1ccc(NCc2ccccc2F)cc1C(F)(F)F` | 32.61 |
| `O=C(N1CCCC1)N1CCC2(CC1)COCCN(Cc1cccnc1)C2.O=C(O)C(F)(F)F.O=C(O)C(F)(F)F` | 30.67 |
| `O=C(O)CC[C@@H]1CN(c2ncccc2F)CC[C@@H]1N1CCOCC1` | 22.52 |
| `Cc1cccc2c(CCNS(=O)(=O)C3CCOC3)c[nH]c12` (centres undefined) | -7.011 |
| `CCN1CC2(CC1=O)CN(C(=O)C(C)C)CCN(S(C)(=O)=O)C2` (centres undefined) | -3.704 |
| `COC(=O)CCN1CCCC1c1cccc2c1OCCO2` (centres undefined) | 30.91 |
| `CSc1[nH]nc(NC(=O)c2ccncc2)c1C#N` | 1.877 |
| `CC[C@H]1CN(C(=O)c2cnc(N3CCN(C)CC3)nc2C)CC[C@@]1(C)O` | 6.477 |
| `[H][C@@]12CCCO[C@]1([H])[C@H](NC(=O)C1CC1)CN2Cc1ccc2c(c1)OCO2` | -14.39 |
| `CCc1nc(CN(C)C2CCN(CCn3cc(C#N)cn3)C2)no1` (centres undefined) | 2.061 |
| `CCN(Cc1cnn(C)c1)S(=O)(=O)c1ccc(NC(=O)C(C)(C)C)cc1` | 30.39 |
| `COc1ccc(CN(C)[C@@H]2CN(C(=O)c3cccs3)C[C@H]2O)cc1` | 19.05 |
| `O=C(c1cccs1)N1CCC2(CC1)CN(c1ccsc1)C(=O)CO2` | 24.11 |
| `Cc1c(C)n2c(SCC(=O)N3CCCC3)nnc2[nH]c1=O` | 9.497 |
| `CC(C)c1nnc2n1CCN(C(=O)c1ccc(-n3cnnc3)cc1)C2` | 2.15 |
| `Cc1nnc(NCCn2nc(C)c(Cl)c2C)o1` | -13.3 |
| `CCN(CC(C)C#N)C(=O)CNc1cc(Cl)ccc1C(N)=O` (centres undefined) | -20.75 |
| `CC(C)OCCS(=O)(=O)N1CCN(Cc2ccco2)CC1` | 30.99 |
| `COC(=O)c1sccc1S(=O)(=O)N1CCC(Oc2cnccn2)CC1` | -31.26 |
| `O[C@@H]1CCN(c2ccc3c(Cl)ccnc3c2F)C1` | -0.1267 |
| `Cc1oncc1C(=O)NCc1cc(=O)n2c(n1)CN(C)CCC2.O=C(O)C(F)(F)F` | -16.26 |
| `CC(C)(C)c1cnc(CN2CCN(c3ncccn3)CC2)o1` | -14.14 |
| `O=C(NCCOc1ccc(F)c(F)c1)NCc1cccc(CO)c1` | 32.18 |
| `CCc1nc2n(n1)CC(NCC(=O)Nc1oc(C)c(C)c1C#N)CC2` (centres undefined) | -11.47 |
| `O=C(c1ccccc1O)N1CCn2c(nnc2C(F)(F)F)C1` | -5.557 |
| `Fc1cccc(N2CCCC3(CN(Cc4nccs4)CCO3)C2)c1.O=C(O)C(F)(F)F.O=C(O)C(F)(F)F` (centres undefined) | 41.24 |
| `Cc1nnc2n1CCN(Cc1nc3ccccc3o1)C2` | 5.556 |
| `COc1cccc2c(=O)n(Cc3ccnc(C)c3)cnc12` | -18.64 |
| `Cn1ccnc1CN(Cc1cccnc1)CC1CCCO1` (centres undefined) | -70.77 |
| `[H][C@@]12C[C@@H](OCc3ccccc3)C[C@]1([H])CN(Cc1cccnc1)C2` | 16.57 & 25.95 |
| `CC(C)Sc1ncccc1C(=O)NCc1ccoc1` | 23.08 |
| `CCCc1nc(C(=O)N(C)Cc2cc(CC)no2)cs1` | 17.84 |
| `CCCNC(=O)NC(C)c1ccccn1` (centres undefined) | 3.088 |
| `CC(C)N(C(=O)Cn1c(-c2ccco2)cc2cccnc21)C(C)C.Cl` | -26.17 |
| `CCc1cc(NCCc2cnccn2)n2nc(C)c(C)c2n1` | 3.819 |
| `COCCc1ncc(CN2C[C@H](C3CC3)[C@@H](N)C2)cn1` | 11.77 |
| `CCc1cnc(NCCCOC2CCCC2)nc1` | 22.68 |
| `COC1CCCN(C(=O)NCC(C)(C)SC)C1` (centres undefined) | 4.321 |
| `FC(F)(F)c1cc(C2CCCN(c3ncccn3)C2)n2ccnc2n1` (centres undefined) | 28.97 |
| `NCc1cccc(NC(=O)CCN2CCOCC2)c1` | -1.506 |
| `N#Cc1ccc(CN(CC(N)=O)C2CCCC2)c(Br)c1` | -3.407 |
| `CCNC(=O)Nc1cccc(F)c1C(=O)NC1CCCC1` | 6.523 |
| `O=C(c1sccc1C1CC1)N1CCCN(c2cccnn2)CC1` | -1.838 |
| `NC(=O)c1cn[nH]c1C1CCCN1C(=O)c1ccccc1` (centres undefined) | -16.91 |
| `CCn1c(C)nnc1SCCNC(=O)CC1CCc2ccccc21` (centres undefined) | 4.2 |
| `CN(CCc1ccccn1)S(=O)(=O)N1CCCC1c1ccco1` (centres undefined) | -4.479 |
| `CCOC(=O)c1n[nH]cc1CN1CCCC(N(C)Cc2ccccc2)C1` (centres undefined) | 16.42 |
| `Cc1ccc(CNC(=O)c2cc(Cn3ccnc3C(C)C)[nH]n2)o1` | -34.92 & 42.65 |
| `CC(=O)Nc1ccc2c(c1)CN(C(=O)c1ccco1)CC2` | -5.039 |
| `CCCS(=O)(=O)NCC(C)(O)c1ccsc1` (centres undefined) | 19.06 |
| `CC(=O)Nc1ccc(CNC(=O)CNCc2sc(C)nc2C)cc1` | 13.04 |
| `Cl.O[C@@H]1CN(Cc2ccc(F)cc2)CC[C@H]1NCc1ccccn1` | 19.04 |
| `Cc1cccc(CNCc2c(C)nn(C)c2N2CCOCC2)n1` | 36.62 |
| `CC(=O)N1CCOC2(CCN(C(=O)C3CC3)CC2)C1` | 19.89 |
| `CC(=O)N1CCCC2(CCN(C(=O)c3ccc(Cl)c(C(F)(F)F)c3)C2)C1` (centres undefined) | 15.54 |
| `Cc1cccc2nc(CN3CCCC(Cn4ccnn4)C3)cc(=O)n12` (centres undefined) | -4.542 |
| `CNc1cc(CNC(=O)c2ccccn2)nc(-c2ccncc2)n1` | 26.33 |
| `CCN1CCN(c2ccccc2NC(=O)NCc2ccon2)CC1` | 8.103 |
| `COc1cc(CCC(=O)N2CCC(c3cncc(C)n3)CC2)on1` | 13.67 |
| `O=S(=O)(c1cc(F)ccc1N1CC(n2cccn2)C1)C(F)(F)F` | 35.57 |
| `CN(CC1Cc2ccccc2CN1C)c1nc(N)nc2c1CCNCC2` (centres undefined) | -5.425 |
| `COc1ccc(CN(Cc2ccsc2)CC2CCCO2)cn1` (centres undefined) | -3.883 |
| `O=C(NCC1CCCN(Cc2cccc3nonc23)C1)c1ccc[nH]1` (centres undefined) | 21.61 |
| `[H][C@]12CC[C@]([H])(CN(Cc3cccc(O)c3)C1)N(CCC)C2` | 28.5 |
| `O=C(O)C(F)(F)F.[H][C@]12CCC[C@@]1(COCc1ccncc1)CN(C(=O)C1=CCCC1)C2` | 10.14 & 9.914 |
| `CC(C)NC(=O)c1ccc2nnc(C3CN(C)CCN3C)n2c1.O=C(O)C(F)(F)F.O=C(O)C(F)(F)F` (centres undefined) | -3.873 |
| `CC(C)c1cc(CN(C)C(=O)C(C)N2CCc3ccccc3C2)no1` (centres undefined) | 19.91 |
| `CCOCc1nc(-c2ccc(F)cc2Cl)n(C)n1` | 49.49 |
| `O=S(=O)(NCC1CCN(c2cnccn2)CC1)C1CC1` | -9.935 |
| `CC(C)c1nnc(CNc2nc(-c3cccnc3)nc3c2CCC3)n1C` | 14.37 |
| `CCCNC(=O)c1ccc(S(=O)(=O)NCC2(COC)CCCC2)cc1` | 35.78 |
| `CC(NC(=O)C1=NN(C)C(=O)CC1)c1cccc(Cl)c1` (centres undefined) | 16.87 |
| `CCC[C@@H]1CN(c2ncnc3ccsc23)C[C@H]1NS(C)(=O)=O` | 20.55 |
| `COCc1cc(CNC(=O)c2cccc3c2OCC3)n[nH]1` | 34.53 |
| `O=C(O)C(F)(F)F.O=C(O)C(F)(F)F.[H][C@@]12C[C@H](C(=O)NCC3CC3)N(C)[C@]1([H])CN(Cc1ccsc1)C2` | 2.466 |
| `CCN(CC)CC1CN(Cc2nccs2)Cc2nccn2C1.O=C(O)C(F)(F)F.O=C(O)C(F)(F)F` (centres undefined) | 2.909 |
| `[H][C@@]12CN(C(=O)[C@H]3CCCO3)C[C@]1([H])C(=O)N(CC1CC1)C2` | 10.15 |
| `[H][C@@]12CCN(C(=O)CCOC)C[C@]1([H])OCCN(c1ccsc1)C2=O` | 5.075 |
| `COCCN1CCC2(CCCN(Cc3ccoc3)C2)C1=O.O=C(O)C(F)(F)F` (centres undefined) | -4.091 |
| `Cc1noc(C)c1Cc1nc(C2CC2)no1` | -4.795 |
| `NC(=O)C1(CCCc2cccnc2)CCCN(c2ncccn2)C1` (centres undefined) | -8.851 |
| `CC(=O)NCC(=O)N1Cc2nccn2CC(CN2CCCC2)C1` (centres undefined) | -39.31 |

10 of the entries, repeated:

compound	effect
CCN(Cc1cnn(C)c1)S(=O)(=O)c1ccc(NC(=O)C(C)(C)C)cc1	30.39
Cc1cccc(CNCc2c(C)nn(C)c2N2CCOCC2)n1	36.62
CC(=O)Nc1ccc(CNC(=O)CNCc2sc(C)nc2C)cc1	13.04
CC[C@H]1CN(C(=O)c2cnc(N3CCN(C)CC3)nc2C)CC[C@@]1(C)O	6.477
CC(C)(C)c1cnc(CN2CCN(c3ncccn3)CC2)o1	-14.14
O=C(c1sccc1C1CC1)N1CCCN(c2cccnn2)CC1	-1.838
CCN(CC(C)C#N)C(=O)CNc1cc(Cl)ccc1C(N)=O (centres undefined)	-20.75
COCCN1CCC2(CCCN(Cc3ccoc3)C2)C1=O.O=C(O)C(F)(F)F (centres undefined)	-4.091
Cc1cc2nc(SCC(=O)N3CCOCC3)n(CC(C)C)c(=O)c2[nH]1	15.75
CN(CC1Cc2ccccc2CN1C)c1nc(N)nc2c1CCNCC2 (centres undefined)	-5.425

The values are deposited in ChEMBL (CHEMBL3988442, “University of Dundee, Small-Polar-MMV Screening Library” (2021)).